# Screen size: about 400,000 compounds; about 13,000 (3.2%) were called active. The inconclusive results got no clear call from the source; some entries with a clear call stand among them for comparison. Calls follow the shape of the dose curve; as a rule, active = well fitted cell-killing curve with a large enough effect; inconclusive = small, poorly fitted or top-dose-only effect, or effect the other way; inactive = flat fitted curve, though single readings scatter. A potency beside an inconclusive call is a rough fit, not a confirmed value.
# Assay: qHTS assay for MDR1-selective chemotherapeutics: Primary screen using the drug-selected MDR subline cells KB-V1; also: nearly all actives have a fitted effect of over 60% in size
# Conditions: KB-V1 MDR cells viability, CellTiter-Glo, 72 h; activity change, negative = cytotoxicity: at 46.1 µM (top of the series)
# Method in brief: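 Readout: CellTiter-Glo luminescence, 10 min after addition. Cells: KB-V1 MDR subline, 72 h at 37 degrees C with compound. Analysis: corrected, normalized data fitted to concentration-effect curves.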
# % is scaled to controls: 0 for no effect and ±100 for the full control effect; potency is read from the fitted curve at half-maximal effect.
SMILES,Potency,"activity change, negative = cytotoxicity"
O=C(Nc1ccccc1[N+](=O)[O-])C1(c2ccccc2)CCOCC1,"inconclusive: 29.1 µM [cytotoxic, single point]",
CCNc1ccc(S(=O)(=O)N(C)C)cc1NCC(=O)Nc1ccccc1Cl,"inconclusive: 29.1 µM [cytotoxic, single point]",
CCCc1nn(C)c(C(=O)Nc2cccc(CC)c2)c1Cl,active: 18.4 µM,
O=Cc1ccc2noc(-c3ccc(Cl)cc3)c2c1,active: 23.1 µM,
Cc1nc(-c2ccccc2)sc1-c1nc(-c2cccnc2)ncc1S(=O)(=O)c1ccccc1,"inconclusive: 8.2 µM [cytotoxic, partial curve]",
COc1cc(NC(=O)CSc2nc(C)c(C)c(C)n2)cc(OC)c1,"inconclusive: 9.2 µM [cytotoxic, partial curve, poor fit]",
CCOc1ccc(N2C(=O)S/C(=C\c3cccn3C)C2=O)cc1,"inconclusive: 13 µM [cytotoxic, partial curve]",
CCSc1ccccc1C(=O)NCc1ccc2c(c1)OCO2,"inconclusive: 32.6 µM [cytotoxic, partial curve, poor fit]",
O=C(CCCN1C(=O)c2ccccc2C1=O)Nc1cccc(S(=O)(=O)NC2=NCCC2)c1,inactive,
Cc1ccc2nc(C3CCCCC3)[nH]c2c1,inactive,
Cc1oc(-c2ccccc2F)nc1CS(=O)(=O)CC(=O)NC1CCCC1,inactive,
COc1ccc(-n2nc([N+](=O)[O-])c(=NCCC3=CCCCC3)n2O)cc1,"inconclusive: 16.4 µM [cytotoxic, single point]",
CS(=O)(=O)Nc1nnc(SCC(=O)N(c2ccccc2)c2ccccc2)s1,inactive,
NC[C@@H]1O[C@H](C23CC4CC(CC(C4)C2)C3)Cc2c1ccc(O)c2O,"inconclusive: 29.1 µM [cytotoxic, single point]",
COc1ccc(NC(=O)NCc2cccnc2)c(OC)c1,inactive,
O=c1nc(N/N=C/c2ccccn2)cn[nH]1,inactive,
CCCC(=O)NC(c1ccccc1OC)c1ccc2cccnc2c1O (configuration not stated),"inconclusive: 7.31 µM [cytotoxic, partial curve, poor fit]",
CCn1c(Cc2ccccc2)nnc1SCC(=O)Nc1nc2ccccc2s1,"inconclusive: 7.31 µM [cytotoxic, partial curve]",
Cc1cc(NC(=O)c2ccccc2)no1,inactive,
COc1ccc(OC)c(C2=NO[C@@](CC(=O)O)(C(=O)Nc3ccc4c(c3)OCCO4)C2)c1,"inconclusive: 2.06 µM [rising, full curve, poor fit]",
FC(F)(F)COc1nc(N/N=C/c2cccnc2)nc(N2CCCCC2c2ccccn2)n1 (configuration not stated),"inconclusive: 2.91 µM [cytotoxic, partial curve, poor fit]",
CCCCN(C)CCNC(=O)c1cc(=O)[nH]c2ccc(S(=O)(=O)N3CCCCCC3)cc12,"inconclusive: 29.1 µM [rising, single point]",
CC1CCC/C(=C(\C#N)c2nc(-c3cc4ccccc4oc3=O)cs2)C1 (configuration not stated),active: 8.2 µM,
CCN(CC)c1ccc(-c2nn3c(-c4ccccc4OC)nnc3s2)cc1,active: 1.46 µM,

SMILES,Potency,"activity change, negative = cytotoxicity"
COc1ccc(N=C2NC(=O)/C(=C/c3ccc(O)c(OC)c3)S2)cc1,"inconclusive: 13 µM [cytotoxic, partial curve]",
CC(C)C1Cc2c(sc3c2c(=O)n(Cc2ccccc2)c2nncn32)CO1 (configuration not stated),"inconclusive: 16.4 µM [cytotoxic, single point]",
COCCN(Cc1ccc(C)cc1)C(=O)[C@H]1O[C@@H](n2ccc(N)nc2=O)[C@H](O)[C@@H]1O,"inconclusive: 16.4 µM [cytotoxic, partial curve]",
Cc1ccccc1NC(=O)Cn1cnc2c(oc3ccccc32)c1=O,active: 18.4 µM,
Cc1cc(=O)oc(C)c1C(=O)OCC(=O)c1ccc2ccccc2c1,"inconclusive: 6.51 µM [cytotoxic, partial curve, poor fit]",
CCCCC(CC)CNC(=O)c1[nH]c(C)c(C(C)=O)c1C (configuration not stated),"inconclusive: 29.1 µM [cytotoxic, single point]",
COc1ccc(Cl)cc1C(=O)CSc1nnnn1C1CCCC1,"inconclusive: 29.1 µM [cytotoxic, single point]",
Cc1ccc(CNC(=O)c2cnc(N(C)C)nc2)cc1,inactive,
CCC(=O)Nc1cc(NC(=O)CSc2ncc(-c3ccc(F)cc3)n2Cc2ccco2)ccc1C,inactive,
O=C(Nc1cccc([N+](=O)[O-])c1)c1ccc2ccccc2c1O,active: 4.11 µM,
N#Cc1ccccc1CN1C(=O)NC(Cc2c[nH]c3ccccc23)C1=O (configuration not stated),inactive,
COc1ccccc1C(=O)NCc1ccc(-c2nc3ccccc3s2)cc1,inactive,
CCc1ccccc1N(CC(=O)N1CCCCCC1)S(C)(=O)=O,,inconclusive: 31.2%
O=C(Nc1ccccc1)Nc1ccc(Br)c(Cl)c1,"inconclusive: 29.1 µM [cytotoxic, single point]",
CC(C)NC(=O)CSc1nnc(CNC(=O)OC(C)(C)C)n1C,inactive,
CC1=C(C(=O)Nc2ccccc2C)C(c2cccs2)NC(=S)N1 (configuration not stated),inactive,
COc1cccc(OC)c1C(=O)OCC(=O)N(C)c1ccccc1,"inconclusive: 16.4 µM [cytotoxic, single point]",
N#CC(=C(c1ccccc1)c1ccccc1)c1ccccc1,"inconclusive: 16.4 µM [cytotoxic, partial curve]",
COc1ccc(NC(=O)Nc2cccc3c2O[C@H](CN(C)Cc2ccc(-c4ccccc4)cc2)[C@@H](C)CN([C@H](C)CO)C3=O)cc1,inactive,
COc1cc(C(=O)CCc2ccc3c(c2)OCO3)cc(OC)c1OC,"inconclusive: 25.9 µM [cytotoxic, single point]",
Nc1cnn(C2OC(CO)C(O)C2O)c(=O)n1 (configuration not stated),active: 4.11 µM,
O=S(=O)(NC1CCCCC1Oc1ccccc1)c1ccccc1 (configuration not stated),"inconclusive: 23.1 µM [cytotoxic, single point]",
COc1ccccc1CNCc1ccc(OC)c2ccccc12,"inconclusive: 9.2 µM [cytotoxic, partial curve, poor fit]",

# 4 of the compounds above, with bars between the fields:
SMILES | Potency | activity change, negative = cytotoxicity
CCCc1nn(C)c(C(=O)Nc2cccc(CC)c2)c1Cl | active: 18.4 µM | 
Cc1cc(NC(=O)c2ccccc2)no1 | inactive | 
CCCCC(CC)CNC(=O)c1[nH]c(C)c(C(C)=O)c1C (configuration not stated) | inconclusive: 29.1 µM [cytotoxic, single point] | 
COc1cccc(OC)c1C(=O)OCC(=O)N(C)c1ccccc1 | inconclusive: 16.4 µM [cytotoxic, single point] | 
